Reference: publication PMC10082800
Results are given in words; binding and its absence hold for the method and conditions named. Binding seen in cells or lysates may run through a third protein. These calls come from enrichment with a bait or labelling near it, and not all partners need be listed.

Chains of the proteins cited; added tags and fusions are not shown.
UniProt P51617: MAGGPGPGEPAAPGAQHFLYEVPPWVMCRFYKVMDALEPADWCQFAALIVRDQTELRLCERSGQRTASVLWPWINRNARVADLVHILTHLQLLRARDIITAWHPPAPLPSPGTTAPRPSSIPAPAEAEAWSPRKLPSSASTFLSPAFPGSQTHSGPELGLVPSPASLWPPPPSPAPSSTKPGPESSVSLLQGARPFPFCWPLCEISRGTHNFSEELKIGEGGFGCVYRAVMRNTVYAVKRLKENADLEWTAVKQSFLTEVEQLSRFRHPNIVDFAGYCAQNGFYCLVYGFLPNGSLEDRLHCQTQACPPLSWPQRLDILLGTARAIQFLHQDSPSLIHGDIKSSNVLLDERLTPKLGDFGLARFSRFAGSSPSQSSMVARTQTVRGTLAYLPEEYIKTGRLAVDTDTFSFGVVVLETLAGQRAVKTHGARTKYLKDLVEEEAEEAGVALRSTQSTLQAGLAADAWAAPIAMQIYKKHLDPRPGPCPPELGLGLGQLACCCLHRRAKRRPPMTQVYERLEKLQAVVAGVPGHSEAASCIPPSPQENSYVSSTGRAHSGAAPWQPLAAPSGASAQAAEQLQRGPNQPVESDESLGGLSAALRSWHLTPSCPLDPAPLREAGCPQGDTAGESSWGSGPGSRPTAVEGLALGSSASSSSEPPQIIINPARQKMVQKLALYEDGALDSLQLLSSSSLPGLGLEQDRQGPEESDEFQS

Molecular target: Interleukin-1 receptor associated kinase 1 (IRAK1), endogenous (human (endogenous in U251)) (UniProt P51617)
Experiment: affinity purification with mass spectrometry; immunoprecipitates by anti-IRAK1 and IgG control antibodies from lysate of U251 cells pretreated with MG132 (10 uM, 4 h); LC-MS/MS (Q Exactive, MASCOT)

binding | Binder
binds | Peroxiredoxin 1 (PRDX1), endogenous (protein, UniProt Q06830 1-199) MSSGNAKIGHPAPNFKATAVMPDGQFKDISLSDYKGKYVVFFFYPLDFTFVCPTEIIAFSDRAEEFKKLNCQVIGASVDSHFCHLAWVNTPKKQGGLGPMNIPLVSDPKRTIAQDYGVLKADEGISFRGLFIIDDKGILRQITVNDLPVGRSVDETLRLVQAFQFTDKHGEVCPAGWKPGSDTIKPDVQKSKEYFSKQK
binds | E3 ubiquitin ligase HECTD3, endogenous (protein, UniProt Q5T447 1-861) MAGPGPGAVLESPRQLLGRVRFLAEAARSLRAGRPLPAALAFVPREVLYKLYKDPAGPSRVLLPVWEAEGLGLRVGAAGPAPGTGSGPLRAARDSIELRRGACVRTTGEELCNGHGLWVKLTKEQLAEHLGDCGLQEGWLLVCRPAEGGARLVPIDTPNHLQRQQQLFGVDYRPVLRWEQVVDLTYSHRLGSRPQPAEAYAEAVQRLLYVPPTWTYECDEDLIHFLYDHLGKEDENLGSVKQYVESIDVSSYTEEFNVSCLTDSNADTYWESDGSQCQHWVRLTMKKGTIVKKLLLTVDTTDDNFMPKRVVVYGGEGDNLKKLSDVSIDETLIGDVCVLEDMTVHLPIIEIRIVECRDDGIDVRLRGVKIKSSRQRELGLNADLFQPTSLVRYPRLEGTDPEVLYRRAVLLQRFIKILDSVLHHLVPAWDHTLGTFSEIKQVKQFLLLSRQRPGLVAQCLRDSESSKPSFMPRLYINRRLAMEHRACPSRDPACKNAVFTQVYEGLKPSDKYEKPLDYRWPMRYDQWWECKFIAEGIIDQGGGFRDSLADMSEELCPSSADTPVPLPFFVRTANQGNGTGEARDMYVPNPSCRDFAKYEWIGQLMGAALRGKEFLVLALPGFVWKQLSGEEVSWSKDFPAVDSVLVKLLEVMEGMDKETFEFKFGKELTFTTVLSDQQVVELIPGGAGIVVGYGDRSRFIQLVQKARLEESKEQVAAMQAGLLKVVPQAVLDLLTWQELEKKVCGDPEVTVDALRKLTRFEDFEPSDSRVQYFWEALNNFTNEDRSRFLRFVTGRSRLPARIYIYPDKLGYETTDALPESSTCSSTLFLPHYASAKVCEEKLRYAAYNCVAIDTDMSPWEE
